# From the supplement of paper PMC8728848
# The other results are listed elsewhere or left out.
# B1: SLLPI (Mus musculus), Q9D9X8 (protein)
# chain: MGICMSMYTQVLVPVDADGDHHILWSRFYERWGSCFNPCAGLVNCLPPHSSALYLCHRMEARSRAPRRQLCPPGITWLALAYLLSCLLASSKAKVFSRCELAKEMHDFGLDGYRGYNLADWVCLAYYTSGFNTNAVDHEADGSTNNGIFQISSRRWCRTLASNGPNLCRIYCTDLLNNDLKDSIVCAMKIVQEPLGLGYWEAWRHHCQGRDLSDWVDGCDF
# Assays:
# Test in all cases: glycan array binding signal (z-score within array); higher = stronger binding
# Settings in all cases: glycan notation: IUPAC condensed, linker removed
# [1] = molecular target: Gal(b1-3)[Fuc(a1-4)]GlcNAc(b1-3)Gal(b1-4)[Fuc(a1-3)]GlcNAc
# Method in brief: (§1)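 Glycan array data were curated from 3228 arrays in the Consortium for Functional Glycomics database and kept only where the protein sequence was available. Glycan names were converted to IUPAC-condensed notation, and columns mapping to the same glycan were averaged. The binding signal is a within-array Z-score, averaged across arrays of the same protein sequence at different concentrations or buffers and across linkers. Negative Z-scores can be read as non-binding.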
# [2] = molecular target: Gal(b1-3)[GlcNAc(b1-6)]GalNAc
# Method in brief: as §1
# [3] = molecular target: Gal(b1-3)[Neu5Ac(a2-6)]GalNAc
# Method in brief: as §1
# [4] = molecular target: Gal(b1-3)[Neu5Ac(a2-6)]GlcNAc(b1-6)Gal(b1-4)Glc
# Method in brief: as §1
# [5] = molecular target: Gal(b1-3)[Neu5Ac(b2-6)]GalNAc
# Method in brief: as §1
# [6] = molecular target: Gal(b1-4)GalNAc(a1-3)[Fuc(a1-2)]Gal(b1-4)GlcNAc
# Method in brief: as §1
# [7] = molecular target: Gal(b1-4)GalNAc(b1-3)[Fuc(a1-2)]Gal(b1-4)GlcNAc
# Method in brief: as §1
# Gal(b1-4)Glc = molecular target: Gal(b1-4)Glc
# Method in brief: as §1
# Gal(b1-4)Glc6S = molecular target: Gal(b1-4)Glc6S
# Method in brief: as §1
# Gal(b1-4)GlcNAc = molecular target: Gal(b1-4)GlcNAc
# Method in brief: as §1
# [8] = molecular target: Gal(b1-4)GlcNAc(a1-6)Gal(b1-4)GlcNAc
# Method in brief: as §1
# [9] = molecular target: Gal(b1-4)GlcNAc(b1-2)Man(a1-3)[Gal(b1-4)GlcNAc(b1-2)Man(a1-6)]Man(b1-4)GlcNAc(b1-4)GlcNAc
# Method in brief: as §1
# [10] = molecular target: Gal(b1-4)GlcNAc(b1-3)Gal(b1-3)GlcNAc
# Method in brief: as §1
# [11] = molecular target: Gal(b1-4)GlcNAc(b1-3)Gal(b1-4)Glc
# Method in brief: as §1
# [12] = molecular target: Gal(b1-4)GlcNAc(b1-3)Gal(b1-4)GlcNAc
# Method in brief: as §1
# [13] = molecular target: Gal(b1-4)GlcNAc(b1-3)Gal(b1-4)GlcNAc(b1-3)Gal(b1-4)GlcNAc
# Method in brief: as §1
# [14] = molecular target: Gal(b1-4)GlcNAc(b1-3)Gal(b1-4)[Fuc(a1-3)]GlcNAc(b1-3)Gal(b1-4)[Fuc(a1-3)]GlcNAc
# Method in brief: as §1
# [15] = molecular target: Gal(b1-4)GlcNAc(b1-3)GalNAc
# Method in brief: as §1
# [16] = molecular target: Gal(b1-4)GlcNAc(b1-3)[Gal(b1-4)GlcNAc(b1-6)]Gal(b1-4)GlcNAc
# Method in brief: as §1
# [17] = molecular target: Gal(b1-4)GlcNAc(b1-3)[GlcNAc(b1-6)]Gal(b1-4)GlcNAc
# Method in brief: as §1
# [18] = molecular target: Gal(b1-4)GlcNAc(b1-6)Gal(b1-4)GlcNAc
# Method in brief: as §1
# [19] = molecular target: Gal(b1-4)GlcNAc(b1-6)Gal(b1-4)GlcNAc(b1-6)GalNAc
# Method in brief: as §1
# [20] = molecular target: Gal(b1-4)GlcNAc(b1-6)GalNAc
# Method in brief: as §1
# [21] = molecular target: Gal(b1-4)GlcNAc(b1-6)[Gal(b1-3)]GalNAc
# Method in brief: as §1
# Gal3S(b1-3)GalNAc = molecular target: Gal3S(b1-3)GalNAc
# Method in brief: as §1
# Gal3S(b1-3)GlcNAc = molecular target: Gal3S(b1-3)GlcNAc
# Method in brief: as §1
# [22] = molecular target: Gal3S(b1-3)[Fuc(a1-4)]GlcNAc
# Method in brief: as §1
# Gal3S(b1-4)Glc = molecular target: Gal3S(b1-4)Glc
# Method in brief: as §1
# Gal3S(b1-4)Glc6S = molecular target: Gal3S(b1-4)Glc6S
# Method in brief: as §1
# Gal3S(b1-4)GlcNAc = molecular target: Gal3S(b1-4)GlcNAc
# Method in brief: as §1
# Gal3S(b1-4)GlcNAc6S = molecular target: Gal3S(b1-4)GlcNAc6S
# Method in brief: as §1
# [23] = molecular target: Gal3S(b1-4)[Fuc(a1-3)]Glc
# Method in brief: as §1
# Gal3S4S(b1-4)GlcNAc = molecular target: Gal3S4S(b1-4)GlcNAc
# Method in brief: as §1
# Gal3S6S(b1-4)GlcNAc = molecular target: Gal3S6S(b1-4)GlcNAc
# Method in brief: as §1
# Gal3S6S(b1-4)GlcNAc6S = molecular target: Gal3S6S(b1-4)GlcNAc6S
# Method in brief: as §1
# Gal4S(b1-4)GlcNAc = molecular target: Gal4S(b1-4)GlcNAc
# Method in brief: as §1
# Gal4S6S(b1-4)GlcNAc = molecular target: Gal4S6S(b1-4)GlcNAc
# Method in brief: as §1
# Gal6S(b1-4)Glc = molecular target: Gal6S(b1-4)Glc
# Method in brief: as §1
# Gal6S(b1-4)Glc6S = molecular target: Gal6S(b1-4)Glc6S
# Method in brief: as §1
# Gal6S(b1-4)GlcNAc = molecular target: Gal6S(b1-4)GlcNAc
# Method in brief: as §1
# Gal6S(b1-4)GlcNAc6S = molecular target: Gal6S(b1-4)GlcNAc6S
# Method in brief: as §1
# GalNAc(a1-3)Gal = molecular target: GalNAc(a1-3)Gal
# Method in brief: as §1
# GalNAc(a1-3)GalNAc = molecular target: GalNAc(a1-3)GalNAc
# Method in brief: as §1
# GalNAc(b1-3)Gal = molecular target: GalNAc(b1-3)Gal
# Method in brief: as §1
# [24] = molecular target: GalNAc(b1-3)Gal(a1-4)Gal(b1-4)GlcNAc
# Method in brief: as §1
binder,measurement,setting,value
B1,glycan array binding signal (z-score),[1],-0.236
same,glycan array binding signal (z-score),[2],0.123
same,glycan array binding signal (z-score),[3],0.64
same,glycan array binding signal (z-score),[4],-0.975
same,glycan array binding signal (z-score),[5],-0.002
same,glycan array binding signal (z-score),[6],-0.169
same,glycan array binding signal (z-score),[7],-0.34
same,glycan array binding signal (z-score),Gal(b1-4)Glc,-0.143
same,glycan array binding signal (z-score),Gal(b1-4)Glc6S,0.537
same,glycan array binding signal (z-score),Gal(b1-4)GlcNAc,-0.462
same,glycan array binding signal (z-score),[8],0.37
same,glycan array binding signal (z-score),[9],-0.577
same,glycan array binding signal (z-score),[10],-1.4
same,glycan array binding signal (z-score),[11],-0.669
same,glycan array binding signal (z-score),[12],-0.088
same,glycan array binding signal (z-score),[13],0.415
same,glycan array binding signal (z-score),[14],-0.466
same,glycan array binding signal (z-score),[15],-0.109
same,glycan array binding signal (z-score),[16],-0.281
same,glycan array binding signal (z-score),[17],-0.03
same,glycan array binding signal (z-score),[18],0.045
same,glycan array binding signal (z-score),[19],-1.02
same,glycan array binding signal (z-score),[20],0.347
same,glycan array binding signal (z-score),[21],-0.826
same,glycan array binding signal (z-score),Gal3S(b1-3)GalNAc,1.84
same,glycan array binding signal (z-score),Gal3S(b1-3)GlcNAc,3.28
same,glycan array binding signal (z-score),[22],1.61
same,glycan array binding signal (z-score),Gal3S(b1-4)Glc,-0.618
same,glycan array binding signal (z-score),Gal3S(b1-4)Glc6S,3.45
same,glycan array binding signal (z-score),Gal3S(b1-4)GlcNAc,1.39
same,glycan array binding signal (z-score),Gal3S(b1-4)GlcNAc6S,1.11
same,glycan array binding signal (z-score),[23],1.15
same,glycan array binding signal (z-score),Gal3S4S(b1-4)GlcNAc,2.18
same,glycan array binding signal (z-score),Gal3S6S(b1-4)GlcNAc,2
same,glycan array binding signal (z-score),Gal3S6S(b1-4)GlcNAc6S,2.4
same,glycan array binding signal (z-score),Gal4S(b1-4)GlcNAc,1.32
same,glycan array binding signal (z-score),Gal4S6S(b1-4)GlcNAc,1.67
same,glycan array binding signal (z-score),Gal6S(b1-4)Glc,0.405
same,glycan array binding signal (z-score),Gal6S(b1-4)Glc6S,2.19
same,glycan array binding signal (z-score),Gal6S(b1-4)GlcNAc,2.83
same,glycan array binding signal (z-score),Gal6S(b1-4)GlcNAc6S,2.04
same,glycan array binding signal (z-score),GalNAc(a1-3)Gal,1.01
same,glycan array binding signal (z-score),GalNAc(a1-3)GalNAc,0.6
same,glycan array binding signal (z-score),GalNAc(b1-3)Gal,0.945
same,glycan array binding signal (z-score),[24],-0.376

# 2 entries from above, set out differently.
binder	measurement	setting	value
B1	glycan array binding signal (z-score)	[2]	0.123
same	glycan array binding signal (z-score)	Gal4S6S(b1-4)GlcNAc	1.67
